PubChem BioAssay AID652272 – Drosophila RNAi Screening Center – 2013
The deposit covers about 21,000 reagents; below is a random part of those with a known target gene and a result. Of all reagents, 503 (2.4%) got an active call. 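Raw plate light values, not normalised; calls rest on replicate z-scores that were not deposited; hits include reporter decreases as well as increases.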 Unmarked entries are inactive. A plus sign joins genes that one reagent is predicted to hit. Not stated in the record: the amount of reagent, the time to read-out.

Assay: 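Finding fly genes that regulate Hedgehog signal transduction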 (primary screen)
Cell system: Drosophila clone 8 (Cl8) cells
Reagents: long dsRNA against Drosophila genes
Measurement: 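Firefly light from a Hedgehog-responsive ptc promoter reporter and Renilla reference light, both read on a plate reader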
Scale: firefly Hh reporter signal: higher = more ptc reporter light; Renilla reference signal: higher = more Renilla control light
Call rule: 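Hit when the z-score averaged over two replicates is under -2 or over +3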
Meaning of the calls: active = hit: reporter lowered or raised; inactive = not a hit

target | amplicon | firefly Hh reporter signal, replicate 1 | firefly Hh reporter signal, replicate 2 | firefly Hh reporter signal, replicate 3 | Renilla reference signal, replicate 1 | Renilla reference signal, replicate 2
CG33270 | DRSC10584 | 61924 | 60064 | 49629 | 4631 | 2672
CG4017 | DRSC02733 | 50212 | 44779 | – | 1482 | 3952
dy (dusky) | DRSC20325 | 1.05e5 | 4.13e5 | – | 2214 | 14740
CG32755 | DRSC18397 | 63467 | 1.73e5 | – | 1425 | 7081
CG10479 | DRSC09733 | 71027 | 44844 | – | 3873 | 2506
Wdr24 (WD repeat domain 24) | DRSC14151 | 92220 | 57664 | – | 2502 | 1800
CG4884 | DRSC15671 | 85881 | 1.38e5 | – | 3298 | 4096
CG10651 | DRSC02086 | 85249 | 40397 | – | 2493 | 3783
Art2 (Arginine methyltransferase 2) | DRSC00627 | 74504 | 44444 | – | 896 | 4806
CG5756 | DRSC06950 | 57420 | 96938 | – | 1592 | 6293
Crz (Corazonin) | DRSC16615 | 1.10e5 | 99141 | – | 3568 | 2933
blo (bloated) | DRSC05937 | 74982 | 43341 | – | 3360 | 1968
Wee1 (Wee1 kinase) | DRSC03635 | 1.37e5 | 60877 | – | 3992 | 6689
CG31777 | DRSC00201 | 5.86e5 | 3.34e5 | – | 29700 | 13328
CG15673 | DRSC04263 | 78200 | 50040 | – | 2240 | 4490
PPO1 (Prophenoloxidase 1) | DRSC05929 | 1.54e5 | 1.27e5 | – | 6327 | 4805
CG13667 | DRSC10028 | 94605 | 70057 | – | 5451 | 2896
Cul4 (Cullin 4) | DRSC07243 | 70033 | 39274 | – | 3133 | 1557
mEFTu2 (mitochondrial translation elongation factor Tu 2) | DRSC06163 | 1.40e5 | 64440 | – | 5408 | 1882
CG13538 | DRSC04180 | 1.33e5 | 71001 | – | 3616 | 6773
CG33191 + Pif1B | DRSC12706 | 1.48e5 | – | – | 3218 | –
PH4alphaNE1 (prolyl-4-hydroxylase-alpha NE1) | DRSC16546 | 77616 | 74756 | – | 1569 | 2180
CG10026 | DRSC02010 | 1.06e5 | 69845 | – | 2740 | 6086
Ssl1 (Suppressor of stem-loop mutation) | DRSC11634 | 1.51e5 | 1.04e5 | – | 4867 | 3544
scrt (scratch) | DRSC08736 | 42658 | 16657 | – | 1543 | 1629
CG2875 | DRSC18231 | 1.51e5 | 1.05e5 | – | 3680 | 3937
Ktl (Kctd12-like) | DRSC14270 | 97033 | 97633 | – | 4784 | 3832
CG17633 | DRSC02631 | 96288 | 51218 | – | 2328 | 4544
CR43670 + grp + CR43671 + 1 more | DRSC03541 | 82484 | 66890 | – | 3057 | 2592
rig (rigor mortis) | DRSC06053 | 81024 | 76006 | – | 3733 | 3248
rig (rigor mortis) | DRSC06400 | 88229 | 42067 | – | 2869 | 3447
Pph13 (PvuII-PstI homology 13) | DRSC00775 | 1.01e5 | 64385 | – | 3930 | 2400
Gpdh2 (Glycerol-3-phosphate dehydrogenase 2) | DRSC04346 | 1.30e5 | 82736 | – | 3338 | 6976
CG7742 | DRSC03066 | 55657 | 60925 | – | 2586 | 2768
Eb1 | DRSC05016 | 1.20e5 | 47821 | – | 2737 | 3202
ADD1 (ADD domain-containing protein 1) | DRSC07135 | 59200 | 49315 | – | 2553 | 1725
RpS30 (Ribosomal protein S30) | DRSC15119 | 2.88e5 (active) | 30432 | – | 20567 | 1330
cv-c (crossveinless c) | DRSC14969 | 68981 | 97401 | – | 2051 | 2804
cv-c (crossveinless c) | DRSC14970 | 1.15e5 | 1.37e5 | – | 3971 | 4061
cv-c (crossveinless c) | DRSC14971 | 55222 | 57269 | – | 2281 | 2012
cv-c (crossveinless c) | DRSC14972 | 1.03e5 | 1.06e5 | – | 3765 | 3053
cv-c (crossveinless c) | DRSC14973 | 1.20e5 | 99556 | – | 4728 | 3184
cv-c (crossveinless c) | DRSC16428 | 73961 | 99472 | – | 2329 | 2800
CG43059 | DRSC08916 | 1.40e5 | 2.71e5 | – | 4141 | 12090
fs(1)Yb (female sterile (1) Yb) | DRSC18777 | 73485 | 2.18e5 | – | 1776 | 9085
Sec31 (Secretory 31) | DRSC07131 | 59714 | 32445 | – | 2888 | 1478
Sema1b (Semaphorin 1b) | DRSC07550 | 1.22e5 | 96284 | – | 6147 | 4304
ssx | DRSC18492 | 83669 | 1.01e5 | – | 904 | 2823
CG34265 | DRSC08030 | 97376 | 2.85e5 | – | 2346 | 11888
mei-P26 (meiotic P26) | DRSC17735 | 30619 | 18903 | – | 992 | 605
CG30338 | DRSC05166 | 97158 | 2.53e5 | – | 8572 | 10986
Sgf29 (SAGA-associated factor 29kDa) | DRSC04076 | 74490 | 41732 | – | 3345 | 2090
CG42671 | DRSC09093 | 2.97e5 | 75591 | – | 3140 | 3140
CG42671 | DRSC10321 | 59729 | 51251 | 52521 | 4964 | 3755
Jhbp2 (Juvenile hormone binding protein 2) | DRSC12292 | 1.14e5 | 1.10e5 | – | 4993 | 2263
LeuRS-m (Leucyl-tRNA synthetase, mitochondrial) | DRSC08595 | 1.06e5 | 62978 | – | 4192 | 2882
CG13698 | DRSC10047 | 60187 | 27378 | – | 2944 | 1146

3 of these entries, reformatted:
{"target":"dy (dusky)","amplicon":"DRSC20325","firefly Hh reporter signal, replicate 1":1.05e5,"firefly Hh reporter signal, replicate 2":4.13e5,"Renilla reference signal, replicate 1":2214,"Renilla reference signal, replicate 2":14740}
{"target":"CG32755","amplicon":"DRSC18397","firefly Hh reporter signal, replicate 1":63467,"firefly Hh reporter signal, replicate 2":1.73e5,"Renilla reference signal, replicate 1":1425,"Renilla reference signal, replicate 2":7081}
{"target":"CG10479","amplicon":"DRSC09733","firefly Hh reporter signal, replicate 1":71027,"firefly Hh reporter signal, replicate 2":44844,"Renilla reference signal, replicate 1":3873,"Renilla reference signal, replicate 2":2506}
